Reference: PMC9938189
These are yes or no findings as the source states them, for the method shown. Binding seen in cells or lysates may run through a third protein. Some results given as binding are weak or reduced against the parent protein; the word gives no strength.

Molecular target: T1, phosphoglycerate kinase 1 (PGK1) (human (endogenous in PC cell lines)) (UniProt P00558)
T1 sequence: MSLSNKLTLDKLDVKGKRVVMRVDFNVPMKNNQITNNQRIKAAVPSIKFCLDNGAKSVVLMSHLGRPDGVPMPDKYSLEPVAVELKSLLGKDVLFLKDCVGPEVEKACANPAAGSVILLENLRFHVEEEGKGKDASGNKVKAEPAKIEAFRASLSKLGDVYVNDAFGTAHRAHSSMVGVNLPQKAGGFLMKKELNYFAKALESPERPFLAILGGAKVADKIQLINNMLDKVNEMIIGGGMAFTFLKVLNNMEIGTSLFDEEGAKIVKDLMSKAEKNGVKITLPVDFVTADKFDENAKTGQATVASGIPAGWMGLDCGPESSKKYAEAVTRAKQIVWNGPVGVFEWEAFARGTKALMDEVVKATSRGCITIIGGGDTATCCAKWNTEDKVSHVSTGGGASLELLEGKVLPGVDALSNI
Assay: co-IP; whole cell lysates incubated with primary antibodies against KIF15/USP10/PGK1 or normal IgG at 4 °C overnight, protein A/G agarose beads 2 h, three washes with ice-cold lysis buffer, immunoblot

binding: binds
B1: kinesin 12 (KIF15) (protein, UniProt Q9NS87 1-1388)
chain: MAPGCKTELRSVTNGQSNQPSNEGDAIKVFVRIRPPAERSGSADGEQNLCLSVLSSTSLRLHSNPEPKTFTFDHVADVDTTQESVFATVAKSIVESCMSGYNGTIFAYGQTGSGKTFTMMGPSESDNFSHNLRGVIPRSFEYLFSLIDREKEKAGAGKSFLCKCSFIEIYNEQIYDLLDSASAGLYLREHIKKGVFVVGAVEQVVTSAAEAYQVLSGGWRNRRVASTSMNRESSRSHAVFTITIESMEKSNEIVNIRTSLLNLVDLAGSERQKDTHAEGMRLKEAGNINRSLSCLGQVITALVDVGNGKQRHVCYRDSKLTFLLRDSLGGNAKTAIIANVHPGSRCFGETLSTLNFAQRAKLIKNKAVVNEDTQGNVSQLQAEVKRLKEQLAELASGQTPPESFLTRDKKKTNYMEYFQEAMLFFKKSEQEKKSLIEKVTQLEDLTLKKEKFIQSNKMIVKFREDQIIRLEKLHKESRGGFLPEEQDRLLSELRNEIQTLREQIEHHPRVAKYAMENHSLREENRRLRLLEPVKRAQEMDAQTIAKLEKAFSEISGMEKSDKNQQGFSPKAQKEPCLFANTEKLKAQLLQIQTELNNSKQEYEEFKELTRKRQLELESELQSLQKANLNLENLLEATKACKRQEVSQLNKIHAETLKIITTPTKAYQLHSRPVPKLSPEMGSFGSLYTQNSSILDNDILNEPVPPEMNEQAFEAISEELRTVQEQMSALQAKLDEEEHKNLKLQQHVDKLEHHSTQMQELFSSERIDWTKQQEELLSQLNVLEKQLQETQTKNDFLKSEVHDLRVVLHSADKELSSVKLEYSSFKTNQEKEFNKLSERHMHVQLQLDNLRLENEKLLESKACLQDSYDNLQEIMKFEIDQLSRNLQNFKKENETLKSDLNNLMELLEAEKERNNKLSLQFEEDKENSSKEILKVLEAVRQEKQKETAKCEQQMAKVQKLEESLLATEKVISSLEKSRDSDKKVVADLMNQIQELRTSVCEKTETIDTLKQELKDINCKYNSALVDREESRVLIKKQEVDILDLKETLRLRILSEDIERDMLCEDLAHATEQLNMLTEASKKHSGLLQSAQEELTKKEALIQELQHKLNQKKEEVEQKKNEYNFKMRQLEHVMDSAAEDPQSPKTPPHFQTHLAKLLETQEQEIEDGRASKTSLEHLVTKLNEDREVKNAEILRMKEQLREMENLRLESQQLIEKNWLLQGQLDDIKRQKENSDQNHPDNQQLKNEQEESIKERLAKSKIVEEMLKMKADLEEVQSALYNKEMECLRMTDEVERTQTLESKAFQEKEQLRSKLEEMYEERERTSQEMEMLRKQVECLAEENGKLVGHQNLHQKIQYVVRLKKENVRLAEETEKLRAENVFLKEKKRSES
